From paper doi:10.1101/2020.06.04.133710
Results are given in words; binding and its absence hold for the method and conditions named. In cells and extracts the contact can be indirect. A yes stands for co-enrichment or nearness to the bait. Other partners may have been found.

Target: T1, MAD1L1 (human), Q9Y6D9
T1 chain: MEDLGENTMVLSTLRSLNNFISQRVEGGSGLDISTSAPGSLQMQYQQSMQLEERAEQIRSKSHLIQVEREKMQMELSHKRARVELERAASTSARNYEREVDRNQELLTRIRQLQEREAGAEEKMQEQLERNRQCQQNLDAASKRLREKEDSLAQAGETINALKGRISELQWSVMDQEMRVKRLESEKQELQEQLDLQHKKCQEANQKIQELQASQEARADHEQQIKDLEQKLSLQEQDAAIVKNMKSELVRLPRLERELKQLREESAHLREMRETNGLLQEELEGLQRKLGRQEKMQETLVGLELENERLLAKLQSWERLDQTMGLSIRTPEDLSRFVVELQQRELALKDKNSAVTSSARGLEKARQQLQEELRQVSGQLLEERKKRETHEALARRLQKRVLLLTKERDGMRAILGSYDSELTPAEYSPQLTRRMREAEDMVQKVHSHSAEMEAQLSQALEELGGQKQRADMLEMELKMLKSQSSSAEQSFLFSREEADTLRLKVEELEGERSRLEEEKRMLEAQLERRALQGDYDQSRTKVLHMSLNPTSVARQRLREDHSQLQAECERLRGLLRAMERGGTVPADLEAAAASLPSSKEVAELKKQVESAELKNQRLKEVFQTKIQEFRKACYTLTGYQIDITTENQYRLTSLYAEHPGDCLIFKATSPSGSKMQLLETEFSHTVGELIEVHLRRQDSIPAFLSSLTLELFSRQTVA
Assay: proximity labelling
Details: remark: other sources report otherwise

B1: NUP107, P57740 1-925 (protein)
chain: MDRSGFGEISSPVIREAEVTRTARKQSAQKRVLLQASQDENFGNTTPRNQVIPRTPSSFRQPFTPTSRSLLRQPDISCILGTGGKSPRLTQSSGFFGNLSMVTNLDDSNWAAAFSSQRSGLFTNTEPHSITEDVTISAVMLREDDPGEAASMSMFSDFLQSFLKHSSSTVFDLVEEYENICGSQVNILSKIVSRATPGLQKFSKTASMLWLLQQEMVTWRLLASLYRDRIQSALEEESVFAVTAVNASEKTVVEALFQRDSLVRQSQLVVDWLESIAKDEIGEFSDNIEFYAKSVYWENTLHTLKQRQLTSYVGSVRPLVTELDPDAPIRQKMPLDDLDREDEVRLLKYLFTLIRAGMTEEAQRLCKRCGQAWRAATLEGWKLYHDPNVNGGTELEPVEGNPYRRIWKISCWRMAEDELFNRYERAIYAALSGNLKQLLPVCDTWEDTVWAYFRVMVDSLVEQEIQTSVATLDETEELPREYLGANWTLEKVFEELQATDKKRVLEENQEHYHIVQKFLILGDIDGLMDEFSKWLSKSRNNLPGHLLRFMTHLILFFRTLGLQTKEEVSIEVLKTYIQLLIREKHTNLIAFYTCHLPQDLAVAQYALFLESVTEFEQRHHCLELAKEADLDVATITKTVVENIRKKDNGEFSHHDLAPALDTGTTEEDRLKIDVIDWLVFDPAQRAEALKQGNAIMRKFLASKKHEAAKEVFVKIPQDSIAEIYNQCEEQGMESPLPAEDDNAIREHLCIRAYLEAHETFNEWFKHMNSVPQKPALIPQPTFTEKVAHEHKEKKYEMDFGIWKGHLDALTADVKEKMYNVLLFVDGGWMVDVREDAKEDHERTHQMVLLRKLCLPMLCFLLHTILHSTGQYQECLQLADMVSSERHKLYLVFSKEELRKLLQKLRESSLMLLDQGLDPLGYEIQL
Question: With B1 as the binder, how does the binding read?
Answer: The binding was “binds”.
